# PubChem BioAssay AID1259254, NCATS, 2017
# Test: 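Gene knock-downs that lead to re-replication, shown by excess G2 DNA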 (primary screen)
# System: human HCT116 colorectal cancer cells
# Reagents: single siRNA against human genes
# Duration: 3 days
# Read-out: 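Imaged Hoechst DNA stain sorts each cell into a cycle phase by DNA amount; per plate, G2 fraction set to 0% for non-targeting and 100% for GMNN siRNA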
# Scale: G2 robust z-score and G2 cells, % of GMNN control: higher = more G2 cells, more excess DNA replication
# Hit rule: 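Active siRNAs have a G2 robust z of 5 or more median absolute deviations over the median, which in these data means about 38% or higher of GMNN control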
# Shown is an unselected part of about 59,000 deposited reagents. Over the whole deposit, about 1,550 (2.6%) were called active. 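G2 share is only a proxy for re-replication; each gene was hit by three separate siRNAs, and active genes were retested.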 A number with no mark means an inactive call. The numbers tell different reagents against one gene apart. Not all columns of the deposit are shown. Not stated in the record: the amount of reagent.
The first 6 entries, ahead of the listing:
gene,reagent no.,G2 robust z-score,"G2 cells, % of GMNN control"
RNF185 (ring finger protein 185),1,-0.287,0.948
RNF185 (ring finger protein 185),2,-0.141,1.97
RNF185 (ring finger protein 185),3,-0.72,-2.1
OR5A1 (olfactory receptor family 5 subfamily A member 1),1,-0.179,1.71
OR5A1 (olfactory receptor family 5 subfamily A member 1),2,-0.657,-1.66
OR5A1 (olfactory receptor family 5 subfamily A member 1),3,0.186,4.28

Results, from the first entry:
gene,reagent no.,G2 robust z-score,"G2 cells, % of GMNN control"
RNF185 (ring finger protein 185),1,-0.287,0.948
RNF185 (ring finger protein 185),2,-0.141,1.97
RNF185 (ring finger protein 185),3,-0.72,-2.1
OR5A1 (olfactory receptor family 5 subfamily A member 1),1,-0.179,1.71
OR5A1 (olfactory receptor family 5 subfamily A member 1),2,-0.657,-1.66
OR5A1 (olfactory receptor family 5 subfamily A member 1),3,0.186,4.28
"C19orf48P (chromosome 19 open reading frame 48, pseudogene)",1,-0.824,-2.83
"C19orf48P (chromosome 19 open reading frame 48, pseudogene)",2,-1.01,-4.12
"C19orf48P (chromosome 19 open reading frame 48, pseudogene)",3,3.01,24.1
CCDC77 (coiled-coil domain containing 77),1,-0.431,-0.0673
CCDC77 (coiled-coil domain containing 77),2,-0.989,-3.99
CCDC77 (coiled-coil domain containing 77),3,-0.395,0.191
CCAR2 (cell cycle and apoptosis regulator 2),1,0.0763,3.5
CCAR2 (cell cycle and apoptosis regulator 2),2,-0.593,-1.21
CCAR2 (cell cycle and apoptosis regulator 2),3,-0.318,0.73
PUS10 (pseudouridine synthase 10),1,0.179,4.23
PUS10 (pseudouridine synthase 10),2,-0.131,2.05
PUS10 (pseudouridine synthase 10),3,-0.65,-1.6
CHRNA9 (cholinergic receptor nicotinic alpha 9 subunit),1,-0.672,-1.76
CHRNA9 (cholinergic receptor nicotinic alpha 9 subunit),2,0.373,5.59
CHRNA9 (cholinergic receptor nicotinic alpha 9 subunit),3,0.562,6.92
"SRSF8CP (serine and arginine rich splicing factor 8C, pseudogene)",1,1.8,15.6
"SRSF8CP (serine and arginine rich splicing factor 8C, pseudogene)",2,0.324,5.25
"SRSF8CP (serine and arginine rich splicing factor 8C, pseudogene)",3,1.6,14.2
SEMA6D (semaphorin 6D),1,-1.03,-4.27
SEMA6D (semaphorin 6D),2,3.68,28.8
SEMA6D (semaphorin 6D),3,1.21,11.5
RPS3AP5 (RPS3A pseudogene 5),1,4.94,37.7
RPS3AP5 (RPS3A pseudogene 5),2,-0.375,0.327
RPS3AP5 (RPS3A pseudogene 5),3,5.84 (active),44
CPA2 (carboxypeptidase A2),1,0.0541,3.35
CPA2 (carboxypeptidase A2),2,-0.137,2
CPA2 (carboxypeptidase A2),3,-0.56,-0.97
PLA2G7 (phospholipase A2 group VII),1,-0.338,0.591
PLA2G7 (phospholipase A2 group VII),2,-0.198,1.58
PLA2G7 (phospholipase A2 group VII),3,-0.484,-0.435
LOC653303 (proprotein convertase subtilisin/kexin type 7 pseudogene),1,4.15,32.2
LOC653303 (proprotein convertase subtilisin/kexin type 7 pseudogene),2,0.661,7.62
LOC653303 (proprotein convertase subtilisin/kexin type 7 pseudogene),3,-0.34,0.578
UBR3 (ubiquitin protein ligase E3 component n-recognin 3),1,-0.252,1.19
UBR3 (ubiquitin protein ligase E3 component n-recognin 3),2,1.19,11.3
UBR3 (ubiquitin protein ligase E3 component n-recognin 3),3,2.57,21
JADE1 (jade family PHD finger 1),1,3.95,30.8
JADE1 (jade family PHD finger 1),2,4.25,32.8
JADE1 (jade family PHD finger 1),3,4.57,35.1
IGF2BP3 (insulin like growth factor 2 mRNA binding protein 3),1,-0.493,-0.502
IGF2BP3 (insulin like growth factor 2 mRNA binding protein 3),2,-0.78,-2.52
IGF2BP3 (insulin like growth factor 2 mRNA binding protein 3),3,1.08,10.6
HNRNPUL1 (heterogeneous nuclear ribonucleoprotein U like 1),1,4.84,37.1
HNRNPUL1 (heterogeneous nuclear ribonucleoprotein U like 1),2,0.523,6.65
HNRNPUL1 (heterogeneous nuclear ribonucleoprotein U like 1),3,-0.0246,2.79
HMGB3P24 (high mobility group box 3 pseudogene 24),1,-0.806,-2.7
HMGB3P24 (high mobility group box 3 pseudogene 24),2,-0.889,-3.29
HMGB3P24 (high mobility group box 3 pseudogene 24),3,-0.839,-2.94
OR4D11 (olfactory receptor family 4 subfamily D member 11),1,2.63,21.5
OR4D11 (olfactory receptor family 4 subfamily D member 11),2,3.44,27.2
OR4D11 (olfactory receptor family 4 subfamily D member 11),3,-0.275,1.04
KLHL1 (kelch like family member 1),1,1.1,10.7
KLHL1 (kelch like family member 1),2,4.38,33.8
KLHL1 (kelch like family member 1),3,-0.392,0.209
LINC00938 (long independently transcribed non-coding RNA 938),1,1.88,16.2
LINC00938 (long independently transcribed non-coding RNA 938),2,-0.801,-2.67
LINC00938 (long independently transcribed non-coding RNA 938),3,-0.776,-2.49
SLC36A3,1,1.05,10.4
SLC36A3,2,0.969,9.78
SLC36A3,3,0.765,8.35
MAGEA8 (MAGE family member A8),1,0.63,7.4
MAGEA8 (MAGE family member A8),2,-0.198,1.58
MAGEA8 (MAGE family member A8),3,-0.664,-1.7
